Laboratory results: patent US20130053392A1, “CARBONIC ANHYDRASE INHIBITORS” (priority 2010, published 2013)
The match of structure and compound is tentative.

Amino acid sequences for entries named in this document (tags omitted). Residues count along the entry.
UniProt P00915, whole entry: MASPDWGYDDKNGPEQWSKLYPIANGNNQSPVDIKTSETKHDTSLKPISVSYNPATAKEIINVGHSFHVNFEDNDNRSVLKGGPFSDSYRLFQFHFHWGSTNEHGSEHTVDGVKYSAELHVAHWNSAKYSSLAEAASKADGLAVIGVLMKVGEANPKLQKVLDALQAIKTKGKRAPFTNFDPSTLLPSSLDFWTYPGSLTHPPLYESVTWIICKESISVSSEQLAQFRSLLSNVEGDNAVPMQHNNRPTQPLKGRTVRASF
UniProt O43570, 25-354 limits assumed: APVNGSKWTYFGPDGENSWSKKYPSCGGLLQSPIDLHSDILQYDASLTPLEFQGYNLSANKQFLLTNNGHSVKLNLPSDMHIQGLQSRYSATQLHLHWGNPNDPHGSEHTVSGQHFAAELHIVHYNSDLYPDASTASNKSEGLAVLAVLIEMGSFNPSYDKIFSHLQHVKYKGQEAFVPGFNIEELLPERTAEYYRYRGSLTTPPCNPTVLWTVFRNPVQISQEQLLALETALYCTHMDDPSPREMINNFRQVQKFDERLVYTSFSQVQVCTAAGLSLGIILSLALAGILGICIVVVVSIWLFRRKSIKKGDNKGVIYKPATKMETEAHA

Tests used:
Assay type in all cases: biochemical
hCA IX = hCA IX (Homo sapiens, UniProt Q16790); assay: CA-catalysed CO2 hydration stopped-flow inhibition assay, hCA IX; settings: tested form: iodide; for KiCAII/KiCAIX: Table 1, selectivity ratio; for Ki: read-out: Ki hCAIX, Table 1, sulfamates 3
hCA I = hCA I (Homo sapiens, UniProt P00915); assay: CA-catalysed CO2 hydration stopped-flow inhibition assay, hCA I; settings: read-out: Ki hCA I; Table 1, sulfamates 3; tested form: iodide
hCA XII = hCA XII (Homo sapiens, UniProt O43570); assay: CA-catalysed CO2 hydration stopped-flow inhibition assay, hCA XII; settings: read-out: Ki hCA XII; Table 1, sulfamates 3; tested form: iodide
hCA II = hCA II (Homo sapiens, UniProt P00918); assay: CA-catalysed CO2 hydration stopped-flow inhibition assay, hCA II; settings: read-out: Ki hCA II; Table 1, sulfamates 3; tested form: iodide

Structure (SMILES): C[n+]1ccccc1CCNC(=O)Nc1ccc(OS(N)(=O)=O)cc1
- KiCAII/KiCAIX (hCA IX): 62.6
- Ki (hCA IX): 0.006 µM
- Ki (hCA I): 1.85 µM
- Ki (hCA XII): 0.008 µM
- Ki (hCA II): 0.376 µM

Structure (SMILES): C[n+]1ccccc1CNC(=O)Nc1ccc(OS(N)(=O)=O)cc1
- KiCAII/KiCAIX (hCA IX): 50.3
- Ki (hCA IX): 0.008 µM
- Ki (hCA I): 4.32 µM
- Ki (hCA XII): 0.007 µM
- Ki (hCA II): 0.403 µM
